Source: the supplement of paper PMC10626197
Some well-known active drugs show little effect in this data set, so a weak value is uncertain.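 Drug pairs were tested on MCF7 breast cancer cells in a dose grid. On every plate, solvent-only DMSO wells served as the untreated reference, and a doxorubicin series served as the total-kill control. No hit threshold applies to the viability readings.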

Test system: MCF7
Assay: cell viability relative to DMSO control (raw); higher = more viable cells
Conditions: exposure time 72 h
Description: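 MCF7 cells, 1000 cells/well in 384-well plates, treated with 6x6 dose matrices of drug pairs (1:3 serial dilutions, DMSO as lowest dose) for 72 h at 37 °C. Viability read by CellTiter-Glo luminescence, 3 biological replicates. Normalised viability sets 0% at the highest doxorubicin dose and 100% at the 0,0 µM control per combination.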

CC[C@]1(O)C[C@H]2CN(CCc3c([nH]c4ccccc34)[C@@](C(=O)OC)(c3cc4c(cc3OC)N(C=O)[C@H]3[C@@](O)(C(=O)OC)[C@H](OC(C)=O)[C@]5(CC)C=CCN6CC[C@]43[C@@H]65)C2)C1 [Vincristine] + COc1cc(Nc2ncc3c(n2)-c2ccc(Cl)cc2C(c2c(F)cccc2OC)=NC3)ccc1C(=O)O [Alisertib]
cell viability [%]
Conditions | drug 2 concentration 0 µM | drug 2 concentration 0.0617284 µM | drug 2 concentration 0.185185 µM | drug 2 concentration 0.555556 µM | drug 2 concentration 1.66667 µM | drug 2 concentration 5 µM
drug 1 concentration 0.0037037 µM | 79.6 | 72.7 | 74.7 | 83.4 | 93.4 | 86.3
drug 1 concentration 0.0111111 µM | 66.9 | 67.3 | 74.2 | 76 | 78.1 | 86.5
drug 1 concentration 0.0333333 µM | 83.6 | 79.4 | 72.2 | 75.6 | 80.3 | 80.4
drug 1 concentration 0.1 µM | 63.9 | 65 | 72.1 | 72.1 | 59.7 | 70.33
drug 1 concentration 0.3 µM | 71.8 | 75.8 | 71.5 | 70.7 | 67.9 | 69.1

CC[C@]1(O)C[C@H]2CN(CCc3c([nH]c4ccccc34)[C@@](C(=O)OC)(c3cc4c(cc3OC)N(C=O)[C@H]3[C@@](O)(C(=O)OC)[C@H](OC(C)=O)[C@]5(CC)C=CCN6CC[C@]43[C@@H]65)C2)C1 [Vincristine] + Cc1c(-c2ccc(O)cc2)n(Cc2ccc(OCCN3CCCCCC3)cc2)c2ccc(O)cc12 [Bazedoxifene (acetate)]
cell viability [%]
Conditions | drug 2 concentration 0 µM | drug 2 concentration 0.123457 µM | drug 2 concentration 0.37037 µM | drug 2 concentration 1.11111 µM | drug 2 concentration 3.33333 µM | drug 2 concentration 10 µM
drug 1 concentration 0.0037037 µM | 91.5 | 82.8 | 82.8 | 86.3 | 71.2 | 5.53
drug 1 concentration 0.0111111 µM | 100 | 92.6 | 91.3 | 90.5 | 76.7 | 6.53
drug 1 concentration 0.0333333 µM | 82.9 | 82.5 | 82.9 | 78.33 | 59.4 | 8.24
drug 1 concentration 0.1 µM | 96 | 82.9 | 83 | 74.4 | 62 | 8.13
drug 1 concentration 0.3 µM | 84.6 | 82.6 | 79 | 69.6 | 56.7 | 6.75

CC[C@]1(O)C[C@H]2CN(CCc3c([nH]c4ccccc34)[C@@](C(=O)OC)(c3cc4c(cc3OC)N(C=O)[C@H]3[C@@](O)(C(=O)OC)[C@H](OC(C)=O)[C@]5(CC)C=CCN6CC[C@]43[C@@H]65)C2)C1 [Vincristine] + Cc1ncc(NC(=O)c2ccc(CN3CCN(C)CC3)c(C(F)(F)F)c2)cc1Nc1nccc(-c2cccnc2)n1 [Flumatinib (mesylate)]
cell viability [%]
Conditions | drug 2 concentration 0 µM | drug 2 concentration 0.617284 µM | drug 2 concentration 1.85185 µM | drug 2 concentration 5.55556 µM | drug 2 concentration 16.6667 µM | drug 2 concentration 50 µM
drug 1 concentration 0.0037037 µM | 98.6 | 98.7 | 102 | 102 | 2.02 | 1.37
drug 1 concentration 0.0111111 µM | 108 | 107 | 110 | 107 | 3.2 | 0.296
drug 1 concentration 0.0333333 µM | 98.6 | 100 | 95.3 | 89.6 | 2.35 | 0.309
drug 1 concentration 0.1 µM | 95.7 | 95.8 | 84.3 | 67.7 | 1.93 | 0.693
drug 1 concentration 0.3 µM | 92 | 91.9 | 82.2 | 70.6 | 2.01 | 0.556

CC[C@]1(O)C[C@H]2CN(CCc3c([nH]c4ccccc34)[C@@](C(=O)OC)(c3cc4c(cc3OC)N(C=O)[C@H]3[C@@](O)(C(=O)OC)[C@H](OC(C)=O)[C@]5(CC)C=CCN6CC[C@]43[C@@H]65)C2)C1 [Vincristine] + Cn1cc(-c2ccc3nnc(C(F)(F)c4ccc5ncccc5c4)n3n2)cn1 [JNJ-38877605]
cell viability [%]
Conditions | drug 2 concentration 0 µM | drug 2 concentration 0.0617284 µM | drug 2 concentration 0.185185 µM | drug 2 concentration 0.555556 µM | drug 2 concentration 1.66667 µM | drug 2 concentration 5 µM
drug 1 concentration 0.0037037 µM | 72.2 | 70 | 68.6 | 74.5 | 71.9 | 74.7
drug 1 concentration 0.0111111 µM | 77 | 74.1 | 79 | 75.2 | 76.6 | 84.3
drug 1 concentration 0.0333333 µM | 77.8 | 81.7 | 78.6 | 85.5 | 85.2 | 76.2
drug 1 concentration 0.1 µM | 75 | 76.8 | 69.43 | 75.9 | 78.5 | 73.6
drug 1 concentration 0.3 µM | 68.4 | 72.5 | 71.9 | 75.3 | 77.7 | 72.9

CS(=O)(=O)c1ccc(C(=O)Nc2ccc(Cl)c(-c3ccccn3)c2)c(Cl)c1 [Vismodegib] + O=C(NOC[C@H](O)CO)c1ccc(F)c(F)c1Nc1ccc(I)cc1F [PD0325901]
cell viability [%]
Conditions | drug 2 concentration 0 µM | drug 2 concentration 0.0246914 µM | drug 2 concentration 0.0740741 µM | drug 2 concentration 0.222222 µM | drug 2 concentration 0.666667 µM | drug 2 concentration 2 µM
drug 1 concentration 0.617284 µM | 100 | 96.1 | 95.2 | 91.5 | 92.3 | 95.7
drug 1 concentration 1.85185 µM | 106 | 93.1 | 100 | 108 | 102 | 93.7
drug 1 concentration 5.55556 µM | 99.5 | 107 | 97.4 | 99.8 | 97 | 100
drug 1 concentration 16.6667 µM | 92.4 | 85.6 | 85.7 | 89.6 | 91.5 | 83.4
drug 1 concentration 50 µM | 74.6 | 77.6 | 77.2 | 68.2 | 72.3 | 67.2
